Experimental data: patent US20170204191A1
Results are given in words; binding and its absence hold for the method and conditions named. Some binding calls cover weakened binding; strength is not graded here. Sequences can lack the tags named with a protein.

Chains of the proteins cited; added tags and fusions are not shown. Lines headed by an entry give the natural chain unless they say otherwise; changes in a name come on top. Residues count along the entry.
UniProt P15941, residues 24-1255: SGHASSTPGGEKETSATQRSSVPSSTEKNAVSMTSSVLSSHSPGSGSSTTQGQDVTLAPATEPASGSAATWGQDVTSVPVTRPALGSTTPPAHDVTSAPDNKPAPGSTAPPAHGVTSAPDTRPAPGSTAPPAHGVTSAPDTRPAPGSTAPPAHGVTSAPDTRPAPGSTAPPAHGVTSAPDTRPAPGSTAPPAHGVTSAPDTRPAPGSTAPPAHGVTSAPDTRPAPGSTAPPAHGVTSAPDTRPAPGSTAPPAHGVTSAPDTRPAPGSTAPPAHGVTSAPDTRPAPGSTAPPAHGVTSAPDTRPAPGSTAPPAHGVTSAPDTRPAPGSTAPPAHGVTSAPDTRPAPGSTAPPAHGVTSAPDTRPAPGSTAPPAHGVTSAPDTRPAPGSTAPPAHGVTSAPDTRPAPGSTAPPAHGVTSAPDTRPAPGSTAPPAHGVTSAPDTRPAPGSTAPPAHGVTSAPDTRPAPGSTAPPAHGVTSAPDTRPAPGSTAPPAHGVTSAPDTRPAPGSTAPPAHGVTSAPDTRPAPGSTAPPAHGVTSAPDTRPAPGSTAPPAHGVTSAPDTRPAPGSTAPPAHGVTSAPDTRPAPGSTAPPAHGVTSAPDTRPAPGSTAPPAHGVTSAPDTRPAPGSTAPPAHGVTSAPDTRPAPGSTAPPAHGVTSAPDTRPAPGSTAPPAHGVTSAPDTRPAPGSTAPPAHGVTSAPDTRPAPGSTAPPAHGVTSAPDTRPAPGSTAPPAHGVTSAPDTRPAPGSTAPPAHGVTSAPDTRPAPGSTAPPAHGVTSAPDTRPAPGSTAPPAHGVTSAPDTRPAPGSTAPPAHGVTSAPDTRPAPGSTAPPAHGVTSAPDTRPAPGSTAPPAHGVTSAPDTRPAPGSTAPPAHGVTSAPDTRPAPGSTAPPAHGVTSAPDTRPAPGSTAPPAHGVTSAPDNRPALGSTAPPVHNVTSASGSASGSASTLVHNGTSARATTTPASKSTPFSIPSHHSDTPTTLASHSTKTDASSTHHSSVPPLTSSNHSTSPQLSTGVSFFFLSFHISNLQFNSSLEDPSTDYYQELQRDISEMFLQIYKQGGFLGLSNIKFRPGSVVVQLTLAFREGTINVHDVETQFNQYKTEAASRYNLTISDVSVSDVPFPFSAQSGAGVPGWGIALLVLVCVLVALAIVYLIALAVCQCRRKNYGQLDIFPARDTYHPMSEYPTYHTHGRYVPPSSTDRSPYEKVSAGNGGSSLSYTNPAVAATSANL

Tests used:
[1] = biological target: MUC1* on the cell surface of MUC1-positive breast cancer cells (ZR-75-1, T47D) (UniProt P15941); experiment: flow cytometry on ZR-75-1 cells, anti-penta-His Alexa 488 detection
[2] = biological target: MUC1* on the cell surface of MUC1-positive breast cancer cells (ZR-75-1, T47D) (UniProt P15941); experiment: FACS on ZR-75-1 cells, anti-Penta-His Alexa 488 detection

binding [1]: binds
binding [2]: binds
B1: MIN-C2 scFv (heavy chain variable-linker-light chain variable, C-terminal poly-histidine tag) (scFv)
scFv: EVQLEESGGGLVKPGGSLKLSCAASGFTFSGYAMSWVRQTPEKRLEWVATISSGGTYIYYPDSVKGRFTISRDNAKNTLYLQMSSLRSEDTAMYYCARLGGDNYYEYFDVWGAGTTVTVSSAKTTPPSVYGGGGSGGGGSGGGGSDIVITQSTASLGVSLGQRATISCRASKSVSTSGYSYMHWYQQRPGQPPKLLIYLASNLESGVPARFSGSGSGTDFTLNIHPVEEEDAATYYCQHSRELPFTFGGGTKLEIKRADAAPTVSVDHHHHHH
